# At least one result comes from cells or an extract, where the contact may be indirect. For part of these data: No signal at the amounts used counts as a negative. For at least one entry, the source does not settle the construct or the ends of the probe. For part of these data: Weaker means in comparison with the reference protein, sequence or condition of that experiment.
# Amino acid sequences for entries named in this document (tags omitted). Residues count along the entry.
# UniProt Q00899, whole entry: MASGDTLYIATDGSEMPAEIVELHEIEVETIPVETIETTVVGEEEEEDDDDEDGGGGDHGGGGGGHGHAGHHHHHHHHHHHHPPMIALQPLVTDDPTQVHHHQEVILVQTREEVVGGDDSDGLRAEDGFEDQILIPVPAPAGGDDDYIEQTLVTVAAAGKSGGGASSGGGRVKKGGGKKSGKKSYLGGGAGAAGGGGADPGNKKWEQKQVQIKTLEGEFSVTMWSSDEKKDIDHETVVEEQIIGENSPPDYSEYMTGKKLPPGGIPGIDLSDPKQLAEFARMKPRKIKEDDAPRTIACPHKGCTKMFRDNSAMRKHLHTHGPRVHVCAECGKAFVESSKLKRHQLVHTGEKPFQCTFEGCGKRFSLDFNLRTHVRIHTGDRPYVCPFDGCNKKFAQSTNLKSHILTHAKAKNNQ
# UniProt P11103, 2-1013: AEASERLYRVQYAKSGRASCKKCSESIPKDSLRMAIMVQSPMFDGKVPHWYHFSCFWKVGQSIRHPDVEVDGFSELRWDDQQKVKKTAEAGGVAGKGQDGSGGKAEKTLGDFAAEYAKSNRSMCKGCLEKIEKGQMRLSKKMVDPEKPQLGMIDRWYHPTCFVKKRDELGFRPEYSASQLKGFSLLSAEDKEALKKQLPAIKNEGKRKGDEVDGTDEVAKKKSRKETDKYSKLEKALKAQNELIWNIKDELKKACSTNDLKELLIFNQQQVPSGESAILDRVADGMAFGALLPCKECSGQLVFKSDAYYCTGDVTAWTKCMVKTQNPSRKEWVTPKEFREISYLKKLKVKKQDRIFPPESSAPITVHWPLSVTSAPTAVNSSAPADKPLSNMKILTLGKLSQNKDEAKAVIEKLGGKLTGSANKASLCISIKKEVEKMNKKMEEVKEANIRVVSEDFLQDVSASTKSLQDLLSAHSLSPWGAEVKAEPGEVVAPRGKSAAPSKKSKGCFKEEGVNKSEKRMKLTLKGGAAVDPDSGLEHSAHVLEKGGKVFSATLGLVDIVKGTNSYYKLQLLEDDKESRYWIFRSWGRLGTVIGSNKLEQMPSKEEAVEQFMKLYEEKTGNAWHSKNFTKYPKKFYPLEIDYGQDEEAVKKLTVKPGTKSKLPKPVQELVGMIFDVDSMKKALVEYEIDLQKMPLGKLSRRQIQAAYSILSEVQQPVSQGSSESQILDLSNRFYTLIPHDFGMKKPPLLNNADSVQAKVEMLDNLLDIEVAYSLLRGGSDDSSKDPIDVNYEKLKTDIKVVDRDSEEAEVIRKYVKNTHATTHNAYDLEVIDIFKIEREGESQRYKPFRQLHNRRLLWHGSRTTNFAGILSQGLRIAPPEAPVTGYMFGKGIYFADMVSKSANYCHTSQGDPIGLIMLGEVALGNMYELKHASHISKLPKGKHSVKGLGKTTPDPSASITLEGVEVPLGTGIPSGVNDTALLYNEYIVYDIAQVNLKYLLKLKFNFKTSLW
# Key:
# [1] = target: YY1 (endogenous, NIH3T3 nuclear extract) (mouse (NIH3T3)) (UniProt Q00899); experiment: EMSA; settings: 12.5 mM Hepes pH 7.9, 15 mM MgCl2, 0.5 mM EDTA, 50 mM KCl, 2 mM mercaptoethanol, 0.05% NP-40, 7.5% glycerol, 2 ug poly(dIdC), 10 ug nuclear extract, 37 C 30 min, protein in an extract, label: 32P (kinase)
# [2] = target: PARP-1 (endogenous, NIH3T3 nuclear extract) (mouse (NIH3T3)) (UniProt P11103); experiment: EMSA supershift; settings: 12.5 mM Hepes pH 7.9, 15 mM MgCl2, 0.5 mM EDTA, 50 mM KCl, 2 mM mercaptoethanol, 0.05% NP-40, 7.5% glycerol, 2 ug poly(dIdC), 10 ug nuclear extract, 37 C 30 min, protein in an extract, label: 32P (kinase)
# [3] = target: YY1 (endogenous, NIH3T3 nuclear extract) (mouse (NIH3T3)) (UniProt Q00899); experiment: EMSA supershift; settings: anti-YY1, most pronounced binding; 12.5 mM Hepes pH 7.9, 15 mM MgCl2, 0.5 mM EDTA, 50 mM KCl, 2 mM mercaptoethanol, 0.05% NP-40, 7.5% glycerol, 2 ug poly(dIdC), 10 ug nuclear extract, 37 C 30 min; protein in an extract; label: 32P (kinase)
sequence,measurement,setting,value
ACGATCCTTAGGATGGCGGAGGCCTCGGAG (double strand) [BM7 m1],binding result,[1],binds
ACGAGAAGTCTTCTGGCGGAGGCCTCGGAG (double strand) [BM7 m2],binding result,[1]; YY1 bands absent,no binding
ACGAGAAGGAGGATGGATTCTGCCTCGGAG (double strand) [BM7 m4],binding result,[1]; bands vanishingly weak,binds more weakly
ACGAGAAGGAGGCGTTAGGAGGCCTCGGAG (double strand) [BM7 m3],binding result,"[2]; anti-PARP-1, YY1 site mutated, AGGCC intact",no binding
same,binding result,[1]; YY1 bands absent,no binding
ACGAGAAGGAGGATGGCGGAGGCCTCGGAG (double strand) [BM7 wild type],binding result,[3],binds
same,binding result,"[2]; anti-PARP-1, YY1 present in extract",binds
ACGAGAAGGAGGATGGCGGATTAAGAGGAG (double strand) [BM7 m5],binding result,"[2]; anti-PARP-1, YY1 still binds",no binding
same,binding result,[1],binds

# — PMC3429435
